Reference: the DeepSol protein solubility set

Experiment: soluble on expression in E. coli; label from the status in PepcDB or PDB records
For “AAGEIDESLYSRQLYVLGKEAMLKMQTSNVLILGLKGLGVEIAKNVVLAGVKSMTVFDPEPVQLADLSTQFFLTEKDIGQKRGDVTRAKLAELNAYVPVNVLDSLDDVTQLSQFQVVVATDTVSLEDKVKINEFCHSSGIRFISSETRGLFGNTFVDLGDEFTVLDPTGEEPRTGMVSDIEPDGTVTMLDDNRHGLEDGNFVRFSEVEGLDKLNDGTLFKVEVLGPFAFRIGSVKEYGEYKKGGIFTEVKVPRKISFKSLKQQLSNPEFVFSDFAKFDRAAQLHLGFQALHQFAVRHNGELPRTMNDEDANELIKLVTDLSVQQPEVLGEGVDVNEDLIKELSYQARGDIPGVVAFFGGLVAQEVLKACSGKFTPLKQFMYFDSLESLPDPKNFPRNEKTTQPVNSRYDNQIAVFGLDFQKKIANSKVFLVGSGAIGCEMLKNWALLGLGSGSDGYIVVTDNDSIEKSNLNRQFLFRPKDVGKNKSEVAAEAVCAMNPDLKGKINAKIDKVGPETEEIFNDSFWESLDFVTNALDNVDARTYVDRRCVFYRKPLLESGTLGTKGNTQVIIPRLTESYSSSRDPPEKSIPLCTLRSFPNKIDHTIAWAKSLFQGYFTDSAENVNMYLTQPNFVEQTLKQSGDVKGVLESISDSLSSKPHNFEDCIKWARLEFEKKFNHDIKQLLFNFPKDAKTSNGEPFWSGAKRAPTPLEFDIYNNDHFHFVVAGASLRAYNYGIKSDDSNSKPNVDEYKSVIDHMIIPEFTPNANLKIQVNDDDPDPNANAANGSDEIDQLVSSLPDPSTLAGFKLEPVDFEKDDDTNHHIEFITACSNCRAQNYFIETADRQKTKFIAGRIIPAIATTTSLVTGLVNLELYKLIDNKTDIEQYKNGFVNLALPFFGFSEPIASPKGEYNNKKYDKIWDRFDIKGDIKLSDLIEHFEKDEGLEITMLSYGVSLLYASFFPPKKLKERLNLPITQLVKLVTKKDIPAHVSTMILEICADDKEGEDVEVPFITIHL”, the “soluble on expression in E. coli” value was “soluble”. In the case of “CTCVPPHPQTAFCNSDLVIRAKFVGTPEVAQTTLYQRYEIKMTKMYKGFQALGDAADIRFVYTPAMESVCGYFHRSHARSEEFLIAGKLQDGLLHITTCSFVAPWNSLSLAQRRGFTKTYTVGCEECTVFPCLSIPCKLQSGTHCLWTDQLLQGSEKGFQSRHLACLPREPGLCTWQSLRSQIA”, the “soluble on expression in E. coli” value is reported as “soluble”. In the case of “EQLLPDLLISPHMLPLTDLEIKFQYRGRPPRALTISNPHGCRLFYSQLEATQEQVELFGPISLEQVRFPSPEDIPSDKQRFYTNQLLDVLDRGLILQLQGQDLYAIRLCQCKVFWSGPCASAHDSCPNPIQREVKTKLFSLEHFLNELILFQKGQTNTPPPFEIFFCFGEEWPDRKPREKKLITVQVVPVAARLLLEMFSGELSWSADDIRLQISNPDLKDRMVEQFKELHHIWQSQQRLQPVAQA”, the “soluble on expression in E. coli” value is reported as “soluble”. For “MANKKVTFREDVKSPAIRKLKQKLTPLKIKKGRGKIQKHIQKTLQKMKEEEESENQSPGTTVEETLTEENISTDKEETSKLENKPKKTRKTSGETIAQKKSRETVGVEVLKTSEGSSKMLGFHVSAAGGLEQAIYNARAEGCRSFAMFVRNQRTWNHKPMSEEVVENWWKAVRETNFPLDQIVPHGSYLMNAGSPEAEKLEKSRLAMLDECQRAEKLGITMYNFHPGSTVGKCEKEECMTTIAETIDFVVEKTENIILVLETMAGQGNSIGGTFEELKFIIDKVKVKSRVGVCIDTCHIFAGGYDIRTQKAYEEVMKNFGEVVGWNYLKAIHINDSKGDVGSKLDRHEHIGQGKIGKAAFELLMNDNRLDGIPMILETPEGKYPEEMMIMYNMDKR”, the “soluble on expression in E. coli” value was “not soluble”. In the case of “MDINKFTIKLQEALAEAQSYAFQQKATEFTSAHILKALLEQNDSVAISILSVCGVNIQNFIKAVNDMVDSVAVLSGEGNPQVTPSRDLIATLHKMQGLANKNGDEFISSEVFLLASLEDKSLTGLYNKFGITKEKLTKAVNDYRGGEKVSSQNQEDMKGALDKYTVDLTDLARKGKIDPIIGRDSEIRRTIQVLQRRTKNNPVLIGEPGVGKTAIVEGLAQRIVNDEVPEGVKGKKVLSLDMGALLAGAKFRGDFEERLKSVLKELSKQEGNVILFIDELHTMVGAGKAEGSMDAGNMLKPALARGELKCVGATTLDEYREYVEKDPALERRFQKVLVDEPTVEDTIAILRGLKERYELHHGVNITDSAIVSAATLSHRYITDRQLPDKAIDLVDEAASQIRMEIDSKPEKMESLYRRIIQLKMQREQLKKEKDDATKKRLEILEQEIKGLDSEYKGLEELWKAEKLKMQGTSKLKEELEKAKFELEKYQRVGDLSKMAELQYGKIPELEAQIKQIEETEAEPSENKLVRTSVTENEIADVVSKATGIPVSKMMEGEKDKLLNMESFLHKRVIGQDQAIKAVSNAVRRSRSGLSDPNRPIGSFMFLGPTGVGKTELTKALAEFLFDDEDAMLRVDMSEFMEKHSVARLIGAPPGYVGYEQGGYLTEHVRRKPYSVILLDEVEKAHADIFNILLQVLDDGRLTDGQGRTVDFKNTVIVMTSNLGSHRIQEMQGQDYETVKSAVMEMVLSHFRPEFVNRVDDAIVFEPLNKEMITEIAKIQIKRLEKRLADLSIGLEVTTGAMDKLADAGFDPVFGARPLKRAIQNNLENPLALKLLDGEFKAEDKIVVDIDANNNIIFSK”, the “soluble on expression in E. coli” value is reported as “soluble”. In the case of “MDLGIQGKLAVVTAGSSGLGFASALELARNGARLLLFSRNREKLEAAASRIASLVSGAQVDIVAGDIREPGDIDRLFEKARDLGGADILVYSTGGPRPGRFMELGVEDWDESYRLLARSAVWVGRRAAEQMVEKGWGRMVYIGSVTLLRPWQDLALSNIMRLPVIGVVRTLALELAPHGVTVNAVLPSLILTDRVRSLAEERARRSGITVEEALKSMASRIPMGRVGKPEELASVVAFLASEKASFITGAVIPVDGGAHI”, the “soluble on expression in E. coli” value is reported as “soluble”. With “MGDIKNFLYAWCGKRKMTPAYEIRAVGNKNRQKFMCEVRVEGFNYAGMGNSTNKKDAQSNAARDFVNYLVRINEVKSEEVPAVGIVPPPPILSDTSDSTASAAEGLPAPMGGPLPPHLALKAEAENNSGVESSGYGSPGPTWDRGANLKDYYSRKEEQEVQATLESEEVDLNAGLHGNWTLENAKARLNQYFQKEKIQGEYKYTQVGPDHNGSFIAEMTIYIKQLGRRIFAREHGSNKKLAAQSCALSLVRQLYHLGVIEAYSG” the “soluble on expression in E. coli” value was “soluble”. In the case of “MGHHHHHHSHMDLLRLSRLFSGPRPLGLSVLQHLDLVGSTRWTGGREGPERLRAAFCGSSSPLPLGSGNQKEMSSLCSDSSKLSTVAPQEEAEEESFGSLSGKFSSRRIFHKSTAQLYNLQLKEQGGEEEELEPRPWRGRRNTQYWYFFQCKRLIKEGKLAEALDLFERQMLKEERLQPLECNYTVLIGGCGRVGYLKKAFRLFNDMKKRDLEPSDATYTALFNVCAESPWKDSALQSALKLRQQLQARNFQLNLKTYHALLKVAAKCADLRLCLDVFKEIIQRGHAVTEETFCFLLVGCIQDKKTGFRQAMQVWRQMLSLGIKPSRHGYNLLLEAARDCGLGDPEVASRLLLTSQEENILLPPPKGRHMAGRKVQAKTVHGVSLRHVEALERQLFLEPSQKLEGPPALPEARVTSRTQPEVETTAEPGHTVALTPLAPKPTHLELEVSLLSLGTLSPAVVSFGTVATPADRLALMGGLEGFLGKMTEHGLQPDIKTLTLLAEVVEPGSAAESSLLSVLDRHRVEADVTFFNTLIRKKSKLGDLEGAKALLPILAKKGIVPNLRTFCNLAIGCHRPRDGMQLLADMKKSQVSPNIHIYSTLINAALKKLDYTYLISILKDMRQNSVPVNEVVVRQLEFAAEYPPTFDRYKGKNTYLEKIDGFRAYYKQWLKAMPAEEAPHPW”, the “soluble on expression in E. coli” value is reported as “soluble”. With “MGSDKIHHHHHHKGHFSLDHAPVSDVDSMQAAYSVSRPSGAVLGYYTRQDVPFYHALADHYVLFDHFHQAMFGGSTGNALFLAAARTCQDPKTPREWRVPKDMSYVDLPYDQAGYLINNLPPLQGPTDEGGGFWDHVPPPAQDYYGPSARVPALLVSAWTRPGYVDHRIVDTTSILRRIETRFQLPPLNERDAAAYALTDGLDFSGKVRDPAFI” the “soluble on expression in E. coli” value was “not soluble”. For “MGSDKIHHHHHHMPGPPRSLEMGLLTFRDVAIEFSLEEWQHLDIAQQNLYRNVMLENYRNLAFLGIAVSKPDLITCLEQGKEPWNMKRHEMVDEPPGMCPHFAQGLWPEQGMEDSFQKAILRRYGKYGHENLQLRKGCKSVDEYKVNKEGYNGLNQCFTTAQSKVFQCDKYLKVFYKFLNSNRPKIRHTEKKSFKCKKRVKLFCMLSHKTQHKSIYHREKSYKCKECGKTFNWSSTLTNHRKIYTEEKPYKCEEYNKSPKQLSTLTTHEIIHAGEKLYKCEECGEAFNRSSNLTTHKIIHTGEKPYKCEECGKAFIWSSTLTEHKKIHTRKKPYKCEECGKAFIWSSTLTRHKRMHTGEKPYKCEECGKAFSQSSTLTTHKIIHTGEKRYKCLECGKAFKQLSTLTTHKIIHVGEKLYKCEECGKGFNRSSNLTTHKIIHTGEKPYKCEECGKAFIWSSTLTKHKRIHTREKPYKCEECGKAFIWSSTLTRHKRMHTGEKPYKCEECGKSFSQSSTLTTHKIIHTGEKPYKCEECGKAFNWSSTLTKHNIIHTEEKPYKCEKCGKAFKQSSILTNHKRIHTGEKPYKCEECGKSFNRSSTFTKHKVIHTGVKPYKCEECGKAFFWSSTLTKHKRIHTGEQPYKWEKFGKAFNRSSHLTTDKITHWREILQV”, the “soluble on expression in E. coli” value was “not soluble”. With “MLALHQDPVKRKLIQQQFVLLLHAHKCSQREKENNEFAARNQLLPHAACTLPHCSTMKEVLIHMTNCNVGRLCHFAHCASSRQIIAHWKDCSREDCPVCKPLKGIQDTPLQFSLPDVISLIGANGNSYGSADGEVIHQIGSSAMSVGEGGHQSRTNQETETNRQNQSQQPLMDINVQLNAEELELAFAELMKNPQLFHD” the “soluble on expression in E. coli” value was “not soluble”. With “MNIQSTIKAVAETISTGPIPGSRKVYQAGELFPELRVPFREVAVHPSANEPPVTIYDPSGPYSDPAIQIDIEKGLPRTREALVVARGDVEEVADPRQVKPEDNGFAQGKHLAPEFPDTGRKIYRAKPGKLVTQLEYARAGIITAEMEYVAIRENLRREQDRPCVRDGEDFGASIPDFVTPEFVRQEIARGRAIIPANINHGELEPMAIGRNFLVKINANIGNSAVLSTVADEVDKLVWATRWGADTVMDLSTGRNIHNIRDWIIRNSSVPIGTVPIYQALEKVNGVAEDLNWEVFRDTLIEQCEQGVDYFTIHAGVRLPFIPMTAKRVTGIVSRGGSIMAKWCLAHHKENFLYERFDEICEIMRAYDVSFSLGDGLRPGSTADANDEAQFSELRTLGELTKVAWKHGVQVMIEGPGHVAMHKIKANMDEQLKHCHEAPFYTLGPLTTDIAPGYDHITSAIGAAMIGWFGTAMLCYVTPKEHLGLPDRDDVKTGVITYKLAAHAADLAKGHPGAAMWDDAISRARFEFRWEDQFNLGLDPETARKFHDETLPKEAHKTAHFCSMCGPKFCSMKISQEVRDFAAGKAPNSAELGMAEMSEKFREQGSEIYLKTE” the “soluble on expression in E. coli” value was “soluble”. For “MNKVDQKFQGSVSFKDVTVGFTQEEWQHLDPSQRALYRDVMLENYSNLVSVGYCAHKPEVIFRLEQGEEPWRLEEEFPSQSFPGSSWLWWFPRLSLFWMTLTVWRNPGEKSGQLIT”, the “soluble on expression in E. coli” value was “not soluble”. In the case of “MQETTVKRDGASPSDAGTPATTAQGLGKLYIRTFGCQMNEYDSDKMADVLRADQGLELTDNPEDADVILFNTCSVREKAQEKVFSDLGRVQHLKKQNPNLVIGVGGCVASQEGEAIVKRAPYVDVVFGPQTLHRLPDLIKRRRAQGVSQVDISFPEIEKFDALPPPRVDGATAFVSIMEGCSKYCSFCVVPYTRGEEVSRPFDDVLLEVADLADQGVKEVTLLGQNVNAYRGAMGDSGEIADFAMLLEYVHEIPGIERIRYTTSHPKEMTQRMVDAYARLPKLVSFLHLPVQAGSDRVLAAMKRGYTALEFKSVVRRLRAARPSLTLSSDFIVGFPGETEEDFQKTMKLIEDVGFDTSFSFVYSRRPGTPAADLHDDTPQDVKLRRLQQLQALINQQAAAIAQGMIGTRQRVLVEGPSRRDPNELMGRTENNRIVNFPGVPRLIGHMVDVVVTHAHTNSLRGRVAGIERDTSGAE”, the “soluble on expression in E. coli” value is reported as “soluble”.
